Measured values as given in PubChem BioAssay AID602313 (National Center for Advancing Translational Sciences (NCATS), 2012).
Among all 390,000 compounds or so, about 760 (0.19%) were called active. This list was built around the results that the source calls inconclusive (neither active nor inactive); the mix of calls is not that of the screen. The call rests on the fitted dose curve; in most records, active means well fitted inhibition curve with a large enough effect; inconclusive means small, poorly fitted or top-dose-only effect; inactive means flat fitted curve, though single readings scatter. A potency beside an inconclusive call is a rough fit, not a confirmed value.

Assay: qHTS for Inhibitors of Vif-A3F Interactions: qHTS; further: nearly all actives have a fitted effect of over 65% in size; on activity, negative = active: % of control where 0% means no effect
Conditions: HeLa A3F-eYFP + Vif (tagged APOBEC3F with the HIV-1 protein that degrades it), YFP fluorescence increase; series mostly up to 46.1 µM; activity, negative = active: at the top concentration
How it was run: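 Fluorescence increase (Ex 488/Em 500-530) after overnight compound treatment at 37 deg C flags inhibition of Vif-driven A3F-eYFP loss in stable HeLa A3F-eYFP/Vif cells seeded overnight beforehand.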
Potency means the concentration at half of the fitted maximal effect.

| SMILES | Potency | activity, negative = active |
| --- | --- | --- |
| c1ccc2c(c1)nc(N1CCOCC1)c1nnnn12 | active: 3.16 µM |  |
| Cc1ccc2oc(-c3cc(NC(=O)c4ncn[nH]4)ccc3O)nc2c1 | inconclusive: 7.94 µM [inhibitor, partial curve, poor fit] |  |
| Cc1ccccc1C(=O)N=c1sccn1C | inconclusive: 6.31 µM [inhibitor, single point] |  |
| S=C(NCCc1ccccc1)Nc1c(Cl)cccc1Cl | inconclusive: 35.5 µM [inhibitor, single point] |  |
| Cc1cc(C)c(Cn2c3ccccc3c3cnn(CC(=O)NCCc4ccccc4)c(=O)c32)c(C)c1 | inconclusive: 22.4 µM [inhibitor, single point] |  |
| COc1cc(-c2nc3cnccn3c2Nc2c(C)cccc2C)ccc1O |  | inactive: -0.156% |
| Nc1nc(-c2ccc(Cl)cc2)nnc1-c1ccc(Br)cc1 | inconclusive: 35.5 µM [inhibitor, single point] |  |
| O=C(Nc1ccc(F)cc1)Nc1nnc(COc2ccccc2F)s1 | inconclusive: 35.5 µM [inhibitor, single point] |  |
| CC(C)(C)NC(=O)C1Cc2ccccc2CN1C(=O)Nc1cccc(Cl)c1 (stereo not given) |  | inactive: 8.95% |
| S=C(NCCN1CCOCC1)N/N=C/c1c2ccccc2cc2ccccc12 | inconclusive: 11.2 µM [inhibitor, partial curve, poor fit] |  |
| O=C(Nc1ccc(O)cc1)c1ccc(NC(=O)C2CCCO2)cc1 (stereo not given) | inconclusive: 35.5 µM [inhibitor, partial curve, poor fit] |  |
| O=C(Nc1cc(S(=O)(=O)Nc2ccc(Cl)cc2)ccc1O)c1ccc(S(=O)(=O)N2CCCCCC2)cc1 | inconclusive: 14.1 µM [inhibitor, single point] |  |
| O=C(Nc1ccc(Cc2ccc(NC(=O)Nc3cccnc3)cc2)cc1)Nc1cccnc1 |  | inactive: -1.52% |
| CC(=O)NC(c1cccs1)c1cc(Cl)c2ccccc2c1O (stereo not given) | inconclusive: 11.2 µM [inhibitor, single point] |  |
| CCOC(=O)N1CCN(/C=C(\C#N)c2nc3ccccc3s2)CC1 | active: 25.1 µM |  |
| O=c1[nH]c(O)c(/C=C2\C=Nc3ccccc32)[nH]1 | inconclusive: 15.8 µM [inhibitor, single point] |  |
| O=C(/C=C/c1ccccc1)COC(=O)c1ccccc1 | inconclusive: 35.5 µM [inhibitor, single point] |  |
| O=C1c2ccccc2-c2nc3ccccc3cc21 | active: 2.82 µM |  |
| CN(C)CCNc1ncnc2c1sc1nc(N3CCCC3)c3c(c12)CC(C)(C)OC3 | inconclusive: 35.5 µM [inhibitor, single point] |  |
| Cc1ccc(CC(=O)NCC2CCCCC2)cc1 | inconclusive: 35.5 µM [inhibitor, single point] |  |
| O=C(/C=C/c1ccc(Cl)cc1)NC(=S)Nc1ccc(N2CCOCC2)c(Cl)c1 | inconclusive: 35.5 µM [inhibitor, single point] |  |
| Cc1ccc(C(=O)N(Cc2ccc3c(c2)OCO3)Cc2nc3ccccc3c(=O)[nH]2)cc1 |  | inactive: -4.06% |
| Cc1ccc(NC(=O)N2CCC(C(=O)NCc3ccc(F)cc3)CC2)cc1 | inconclusive: 3.55 µM [inhibitor, single point] |  |
| N#CCSc1ccccc1NC(=O)CN1C(=O)NC(CCc2ccccc2)C1=O (stereo not given) | active: 25.1 µM |  |

One compound at a time (already shown).
`S=C(NCCc1ccccc1)Nc1c(Cl)cccc1Cl` as listed: Potency: inconclusive: 35.5 µM [inhibitor, single point]
`CN(C)CCNc1ncnc2c1sc1nc(N3CCCC3)c3c(c12)CC(C)(C)OC3` as listed: Potency: inconclusive: 35.5 µM [inhibitor, single point]
`O=C(/C=C/c1ccccc1)COC(=O)c1ccccc1` as listed: Potency: inconclusive: 35.5 µM [inhibitor, single point]
`Cc1ccc(CC(=O)NCC2CCCCC2)cc1` as listed: Potency: inconclusive: 35.5 µM [inhibitor, single point]

Pulled by compound from above (two):

| SMILES | Potency | activity, negative = active |
| --- | --- | --- |
| O=C(/C=C/c1ccc(Cl)cc1)NC(=S)Nc1ccc(N2CCOCC2)c(Cl)c1 | inconclusive: 35.5 µM [inhibitor, single point] |  |
| CC(C)(C)NC(=O)C1Cc2ccccc2CN1C(=O)Nc1cccc(Cl)c1 (stereo not given) |  | inactive: 8.95% |

Next part:

| SMILES | Potency | activity, negative = active |
| --- | --- | --- |
| O=C(N/N=C/c1ccc([N+](=O)[O-])cc1)c1ccc(NS(=O)(=O)c2cccs2)cc1 |  | inactive: -1.74% |
| COc1ccccc1NC(=O)CC(=O)c1ccccc1 |  | inactive: 13.6% |
| CCc1nc(N2CCCCC2)c2oc3ccccc3c2n1 |  | inactive: -21.3% |
| CC1=CC2=NC(=O)/C(=C/c3coc4ccccc4c3=O)C(=N)N2O1 | inconclusive: 20 µM [inhibitor, partial curve, poor fit] |  |
| O=C(CCN1C(=O)/C(=C/c2ccccc2)SC1=S)NCCCN1CCOCC1 | inconclusive: 35.5 µM [inhibitor, single point] |  |
| CCCCCCn1c(=O)[nH]c2nc3cc(N)c(C)cc3nc2c1=O | inconclusive: 3.55 µM [inhibitor, partial curve, poor fit] |  |
| CC(C)OC(=O)c1ccc(Cn2nnc3ccccc3c2=O)cc1 | inconclusive: 3.55 µM [inhibitor, partial curve, poor fit] |  |
| CCOc1ccc2nc(-c3ccccc3)[nH]c2c1 |  | inactive: -5.74% |
| O=C(NCCCN1CCCC1)c1cc2c(Cl)nc3ccccc3c2s1 | inconclusive: 35.5 µM [inhibitor, single point] |  |
| CC1(c2ccc([N+](=O)[O-])cc2)NC(=O)N(CC(=O)Nc2ccc(N3CCCCC3)cc2)C1=O (stereo not given) | inconclusive: 6.31 µM [inhibitor, single point] |  |
| CC1=NN(c2ccccc2)C(=O)/C1=C\N(O)c1ccccc1 | inconclusive: 35.5 µM [inhibitor, single point] |  |
| N#C/C(=C/c1ccc(O)c(O)c1)C(=O)NCc1ccc(Cl)cc1 | inconclusive: 14.1 µM [inhibitor, single point] |  |
| CCOC(=O)C1(Cc2cccc(F)c2)CCN(Cc2nc(CC)[nH]c2C)CC1 | inconclusive: 15.8 µM [inhibitor, partial curve, poor fit] |  |
| CCCCCCSc1cccc(-c2nc3ccc(C)cn3c2NCc2ccccc2)c1 | inconclusive: 17.8 µM [inhibitor, partial curve, poor fit] |  |
| COc1cccc(C(=O)c2sc(NC(C)C)nc2N)c1 |  | inactive: 0.84% |
| CN(C)c1ccc(/C=C/C(=O)c2cccc(Br)c2)cc1 | inconclusive: 35.5 µM [inhibitor, single point] |  |
| Nc1ccc(Cn2ccc3c4c(N)nc(N)nc4ccc32)cc1 |  | inactive: -0.147% |
| COc1ccccc1/C=C/C(=O)NC(=S)NCC1CCCO1 (stereo not given) | inconclusive: 22.4 µM [inhibitor, partial curve, poor fit] |  |
| O=C(O)/C=C/C(=O)Nc1cc(F)ccc1F | inconclusive: 3.16 µM [inhibitor, single point] |  |
| COc1ccc(NC(=O)c2ccc3c(=O)n4nc(Nc5cc(C)ccc5C)sc4nc3c2)cc1 |  | inactive: -3.71% |
| O=C1c2cc(O)c(O)cc2OC(c2ccc(O)c(O)c2)C1O (stereo not given) |  | inactive: 5.17% |
| COc1ccc(/C=C/C(=O)N2CC(C)OC(C)C2)cc1OC (stereo not given) |  | inactive: -6.75% |
| COc1ccc(CCn2c(=N)c(C(=O)NC3CCCC3)cc3c(=O)n4ccccc4nc32)cc1OC | inconclusive: 35.5 µM [inhibitor, single point] |  |
| CN1CCN(C(=O)c2cccc(-c3cc(O)c4ncccc4c3)c2)CC1 | inconclusive: 35.5 µM [inhibitor, single point] |  |

| SMILES | Potency | activity, negative = active |
| --- | --- | --- |
| CCCCCCn1c(=O)n2n(c1=O)C[C@]1(OC(=O)Nc3cccs3)CN(S(=O)(=O)c3ccc(C)cc3)C[C@]1(O)C2 | inconclusive: 25.1 µM [inhibitor, single point] |  |
| CC(OC(=O)c1ccc(Cl)nc1)C(=O)N1CCc2ccccc21 (stereo not given) | inconclusive: 6.31 µM [inhibitor, single point] |  |
| C=C/C(C)=C/CC1C(=C)CCC2C(C)(C(=O)O)CCCC12C (stereo not given) |  | inactive: -5.6% |
| Cn1c(=O)c2c(-c3ccccc3)n3c(c2n(C)c1=O)C(c1cccc([N+](=O)[O-])c1)Nc1ccccc1-3 (stereo not given) |  | inactive: -0.605% |
| CC1CCCN(C(=O)Cc2cn(Cc3cccc(Cl)c3)c3ccccc23)C1 (stereo not given) | inconclusive: 28.2 µM [inhibitor, single point] |  |
| Cc1cccc2sc(N(CCCN(C)C)C(=O)c3sc4ccccc4c3Cl)nc12 | inconclusive: 35.5 µM [inhibitor, single point] |  |
| Cc1nn(C)cc1C1C(C#N)=C(N)N(c2ccc(F)c([N+](=O)[O-])c2)C2=C1C(=O)CCC2 (stereo not given) |  | inactive: -6.23% |
| CCOc1ccc(CCNC(=O)c2ccc(C)c(-n3cnc4cccnc43)c2)cc1 |  | inactive: 2.24% |
| Cc1cccc(NCc2ccc(O)c3ncccc23)c1C | inconclusive: 35.5 µM [inhibitor, single point] |  |
| N#Cc1cc(C(=O)c2cc(F)ccc2O)cn(-c2nccs2)c1=O | inconclusive: 17.8 µM [inhibitor, partial curve, poor fit] |  |
| COc1ccc(-c2csc(NC(=O)c3ccc(OCC(=O)N4CCOCC4)c(OC)c3)n2)cc1 |  | inactive: 13.1% |
| Cc1ccc(S(=O)(=O)N2CCC(c3nnc(-c4cccc(C)c4)o3)CC2)cc1 | inconclusive: 6.31 µM [inhibitor, single point] |  |
| N#CC1=C(N)Oc2cc(N)ccc2C1c1cc(Br)cs1 (stereo not given) |  | inactive: -9.33% |
| Nc1cc(=O)[nH]c(SCC(=O)N2N=C(c3ccc(Cl)cc3)CC2c2ccco2)n1 (stereo not given) |  | inactive: 1.27% |
| Cc1ccccc1-n1c2nc(=O)[nH]c(=O)c-2cc2c(Cl)cccc21 |  | inactive: -4% |
| CC(=O)Oc1ccc(C2=Cc3ccc(OC(C)=O)cc3OC2C)cc1 (stereo not given) | inconclusive: 7.94 µM [inhibitor, partial curve, poor fit] |  |
| COc1ccccc1-c1oc2ccccc2c1-c1ccc2cc[nH]c2c1 | inconclusive: 15.8 µM [inhibitor, partial curve, poor fit] |  |
| O=C(Cc1cccs1)Nc1ccc(S(=O)(=O)N2CCCC2)cc1 | inconclusive: 6.31 µM [inhibitor, single point] |  |
| Cc1ccc(C(=O)/C=C/Nc2ccc([N+](=O)[O-])cc2Br)cc1 | inconclusive: 35.5 µM [inhibitor, single point] |  |
| CCn1c(SCC(=O)c2c[nH]c3ccccc23)nnc1-c1cccs1 | active: 22.4 µM |  |
| Oc1c(C(Nc2ccccn2)c2ccccn2)ccc2cccnc12 (stereo not given) |  | inactive: -11.5% |
| O=C(C=Cc1ccc2c(c1)OCO2)C=Cc1ccc2c(c1)OCO2 | inconclusive: 3.55 µM [inhibitor, full curve, poor fit] |  |
